Experimental data as given in article doi:10.1101/2023.01.13.523903 (bioRxiv, 2023).
These are yes or no findings as the source states them, for the method shown. In cells and extracts the contact can be indirect. These calls come from enrichment with a bait or labelling near it, and not all partners need be listed.

Chains of the proteins cited; added tags and fusions are not shown.
UniProt Q9JLQ0: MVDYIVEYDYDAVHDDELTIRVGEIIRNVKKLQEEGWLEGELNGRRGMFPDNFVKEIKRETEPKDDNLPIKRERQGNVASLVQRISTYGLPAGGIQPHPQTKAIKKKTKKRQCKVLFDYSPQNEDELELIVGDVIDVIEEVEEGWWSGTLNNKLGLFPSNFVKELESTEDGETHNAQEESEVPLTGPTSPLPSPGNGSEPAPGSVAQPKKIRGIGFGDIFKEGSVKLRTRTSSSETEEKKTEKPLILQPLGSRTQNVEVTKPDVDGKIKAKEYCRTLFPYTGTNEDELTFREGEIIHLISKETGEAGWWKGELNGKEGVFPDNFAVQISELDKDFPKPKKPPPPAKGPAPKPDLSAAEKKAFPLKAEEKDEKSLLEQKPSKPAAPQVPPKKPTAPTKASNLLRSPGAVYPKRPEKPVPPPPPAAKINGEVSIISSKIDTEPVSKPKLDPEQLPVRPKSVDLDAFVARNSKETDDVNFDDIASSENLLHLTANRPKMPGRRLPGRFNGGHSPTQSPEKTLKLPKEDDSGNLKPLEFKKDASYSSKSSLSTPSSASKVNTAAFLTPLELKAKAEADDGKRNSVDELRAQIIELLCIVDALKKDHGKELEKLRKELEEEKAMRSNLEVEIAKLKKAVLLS

Biological target: T1, TKS4 of NIH 3T3 cells (mouse (endogenous in NIH3T3)) (UniProt A2AAY5)
T1 sequence: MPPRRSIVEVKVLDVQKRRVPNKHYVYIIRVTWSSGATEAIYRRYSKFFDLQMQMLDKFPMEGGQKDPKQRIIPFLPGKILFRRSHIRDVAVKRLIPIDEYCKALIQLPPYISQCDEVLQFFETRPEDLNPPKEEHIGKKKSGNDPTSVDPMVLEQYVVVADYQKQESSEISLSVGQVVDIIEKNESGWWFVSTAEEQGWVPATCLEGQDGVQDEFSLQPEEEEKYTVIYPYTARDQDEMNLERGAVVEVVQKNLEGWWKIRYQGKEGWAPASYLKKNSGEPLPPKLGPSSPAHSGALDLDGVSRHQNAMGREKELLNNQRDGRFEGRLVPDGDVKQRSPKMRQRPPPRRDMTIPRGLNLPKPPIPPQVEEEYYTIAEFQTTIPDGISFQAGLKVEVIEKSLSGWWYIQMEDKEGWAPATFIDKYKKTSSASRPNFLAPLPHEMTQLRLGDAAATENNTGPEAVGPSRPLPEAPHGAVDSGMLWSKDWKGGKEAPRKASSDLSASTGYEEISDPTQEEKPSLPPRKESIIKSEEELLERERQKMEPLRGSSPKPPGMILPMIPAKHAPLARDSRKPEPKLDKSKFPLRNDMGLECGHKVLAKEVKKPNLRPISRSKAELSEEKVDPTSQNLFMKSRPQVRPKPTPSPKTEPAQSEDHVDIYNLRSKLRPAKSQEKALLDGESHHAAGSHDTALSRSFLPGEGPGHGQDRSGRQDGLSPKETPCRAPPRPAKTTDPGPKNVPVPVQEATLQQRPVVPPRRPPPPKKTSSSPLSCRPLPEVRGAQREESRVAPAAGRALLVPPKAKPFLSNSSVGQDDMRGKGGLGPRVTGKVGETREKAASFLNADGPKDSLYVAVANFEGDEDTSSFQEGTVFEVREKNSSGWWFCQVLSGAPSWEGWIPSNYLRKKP
Assay: affinity purification with mass spectrometry

For “CD2AP of NIH 3T3 cells (from UniProt Q9JLQ0 1-637)”, which binding is on record?
Its binding is “binds”.
